PubChem BioAssay AID504744, Drosophila RNAi Screening Center, 2011

Test: 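Identify dsRNAs that increase or decrease phospho-dAkt after insulin treatment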 (primary screen)
Cells: Drosophila Kc167 cells
Knock-down reagent: long dsRNA against Drosophila genes, 250 ng dsRNA per well of a 384-well plate
Time to read-out: 3 days of knock-down, then overnight serum-free starvation before stimulation
Challenge: bovine insulin at 387 nM for 10 minutes after 12 h without serum
Detection: 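In-cell antibody fluorescence for phospho-dAkt in each well over DNA-dye signal, with log2 residuals expressed as z-scores adjusted for cell count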
Rule for the call: 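Hit in the insulin screen when the two-replicate mean z-score is more extreme than plus or minus 2.5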
The screen tested about 23,000 reagents; this is an unselected part of those that have a named target and a result. Over the whole deposit, 98 (0.43%) got an active call. 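Only hit calls are given; the phospho-dAkt signals, z-scores and hit direction were not deposited.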 A plus sign joins genes that one reagent is predicted to hit. No sequences are given here.

| Gene | amplicon | activity call |
| --- | --- | --- |
| CG32079 (GeneID 39230) | DRSC22636 | inactive |
| fz3 (GeneID 31023) | DRSC18779 | inactive |
| CG31459 (GeneID 318746) | DRSC13380 | inactive |
| Cyp313a3 (GeneID 41488) | DRSC16626 | inactive |
| Dph2 (GeneID 41802) | DRSC16222 | inactive |
| dpr16 (GeneID 40619) | DRSC12217 | inactive |
| dpr16 (GeneID 40619) | DRSC12249 | inactive |
| CG12438 (GeneID 34202) | DRSC02167 | inactive |
| elg1 (GeneID 39770) | DRSC10229 | inactive |
| Ubqn (GeneID 32977) | DRSC19581 | inactive |
| CG10809 (GeneID 39159) | DRSC09802 | inactive |
| qkr58E-3 (GeneID 37559) | DRSC04711 | inactive |
| tst (GeneID 42813) | DRSC14212 | inactive |
| CG32260 (GeneID 317943) | DRSC08084 | inactive |
| mars (GeneID 36498) | DRSC06656 | inactive |
| Doa (GeneID 43415) | DRSC13892 | inactive |
| Doa (GeneID 43415) | DRSC13893 | inactive |
| Doa (GeneID 43415) | DRSC13895 | inactive |
| Doa (GeneID 43415) | DRSC13896 | inactive |
| Doa (GeneID 43415) | DRSC13897 | inactive |
| Doa (GeneID 43415) | DRSC16650 | inactive |
| Or85e (retired record) (GeneID 3772269) | DRSC16768 | inactive |
| lolal (GeneID 44703) | DRSC06948 | inactive |
| Or22b (GeneID 33336) | DRSC00765 | inactive |
| CG32221 (GeneID 317924) | DRSC09638 | inactive |
| Cdlc2 (GeneID 33319) | DRSC00743 | inactive |
| EbpII (GeneID 326108) | DRSC04637 | inactive |
| EbpII (GeneID 326108) | DRSC22484 | inactive |
| Vm26Aa (GeneID 33829) | DRSC03472 | inactive |
| CG33217 (GeneID 2768951) | DRSC22907 | inactive |
| fau (GeneID 41291) | DRSC12816 | inactive |
| fau (GeneID 41291) | DRSC12817 | inactive |
| fau (GeneID 41291) | DRSC16943 | inactive |
| fau (GeneID 41291) | DRSC16944 | inactive |
| fau (GeneID 41291) | DRSC16945 | inactive |
| fau (GeneID 41291) | DRSC22360 | inactive |
| c12.2 (GeneID 53434) | DRSC18751 | inactive |
| Snap24 (GeneID 41193) | DRSC16864 | inactive |
| CG15005 (GeneID 38506) | DRSC08459 | inactive |
| Rad23 (GeneID 43785) | DRSC17167 | inactive |
| PIG-U (GeneID 34185) | DRSC02193 | inactive |
| NaPi-T (GeneID 36651) | DRSC07476 | inactive |
| CG14969 (GeneID 38415) | DRSC08428 | inactive |
| CG31523 (GeneID 326148) | DRSC12009 | inactive |
| CG31523 (GeneID 326148) | DRSC12337 | inactive |
| Hem (GeneID 40462) | DRSC11865 | inactive |
| CG31122 (GeneID 42221) | DRSC14787 | inactive |
| CG31122 (GeneID 42221) | DRSC16286 | inactive |
| bdwf (GeneID 42057) | DRSC15532 | inactive |
| CG11327 (GeneID 33940) | DRSC02146 | inactive |
| Snrk (GeneID 36579) | DRSC07192 | inactive |
| CG12590 (GeneID 40618) | DRSC12216 | inactive |
| Hrb87F (GeneID 48535) | DRSC16708 | inactive |
| CG34002 (GeneID 3885644) | DRSC09512 | inactive |
| CG34002 (GeneID 3885644) | DRSC11953 | inactive |
| CG13616 (GeneID 42917) | DRSC14619 | inactive |
| DNAlig3 (GeneID 41518) | DRSC15201 | inactive |
| CG10914 (GeneID 37075) | DRSC06010 | inactive |
| crn (GeneID 31208) | DRSC18184 | inactive |
| crn (GeneID 31208) | DRSC18185 | inactive |
| crn (GeneID 31208) | DRSC18755 | active |
| garz (GeneID 36337) | DRSC07193 | active |
| CG5466 (GeneID 42444) | DRSC15808 | inactive |
| Zip102B (GeneID 43786) | DRSC17155 | inactive |
| Trap1 (GeneID 35559) | DRSC05019 | inactive |
| Tomosyn (GeneID 32217) | DRSC19365 | inactive |
| Tomosyn (GeneID 32217) | DRSC19692 | inactive |
| Tomosyn (GeneID 32217) | DRSC19782 | inactive |
| Tomosyn (GeneID 32217) | DRSC19842 | inactive |
| CG3184 (GeneID 31608) | DRSC18289 | inactive |
| CG14229 (GeneID 32980) | DRSC19585 | inactive |
| Noc2 (GeneID 35386) | DRSC03165 | inactive |
| CG11562 (GeneID 33200) | DRSC00316 | inactive |
| CG30114 (GeneID 246465) | DRSC05707 | inactive |
| IntS11 (GeneID 43506) | DRSC15407 | inactive |
| CG33285 (GeneID 2768988) | DRSC11463 | inactive |
| Nct (GeneID 42964) | DRSC16172 | inactive |
| JMJD6 (GeneID 42616) | DRSC15787 | inactive |
| Epac (GeneID 35588) | DRSC04969 | inactive |
| Epac (GeneID 35588) | DRSC04996 | inactive |
| Epac (GeneID 35588) | DRSC04997 | inactive |
| ana3 (GeneID 36341) | DRSC06289 | inactive |
| DnaJ-1 (GeneID 38643) | DRSC11145 | active |
| CG9106 (GeneID 32454) | DRSC20154 | inactive |
| CG16974 (GeneID 34713) | DRSC02551 | inactive |
| Hr83 (GeneID 40783) | DRSC12521 | inactive |
| Fur1 (GeneID 47220) | DRSC13707 | inactive |
| Fur1 (GeneID 47220) | DRSC16676 | inactive |
| CG10163 (GeneID 38728) | DRSC09710 | inactive |
| nAChRalpha6 (GeneID 34304) | DRSC01096 | inactive |
| nAChRalpha6 (GeneID 34304) | DRSC02738 | inactive |
| SmD3 (GeneID 36306) | DRSC07553 | inactive |
| CG31900 (retired record) (GeneID 319013) | DRSC21835 | inactive |
| Parg (GeneID 31329) | DRSC18696 | inactive |
| CG31272 (GeneID 326130) | DRSC16058 | inactive |
| CR13656 (GeneID 8674041) | DRSC13705 | inactive |
| CR13656 (GeneID 8674041) | DRSC14656 | inactive |
| LKRSDH (GeneID 34064) | DRSC03015 | inactive |
| CG30338 (GeneID 246548) | DRSC05166 | inactive |
| Gart (GeneID 33986) | DRSC03481 | inactive |
| CG10068 (GeneID 40852) | DRSC12508 | inactive |
| CG7888 (GeneID 39232) | DRSC10926 | inactive |
| CG10584 (GeneID 40324) | DRSC11624 | inactive |
| CG15126 (GeneID 50202) | DRSC06548 | inactive |
| E(z) (GeneID 39203) | DRSC11147 | inactive |
| Cap-G (GeneID 36440) | DRSC06652 | inactive |
| Cap-G (GeneID 36440) | DRSC06653 | inactive |
| Cap-G (GeneID 36440) | DRSC21805 | inactive |
| Usp32 (GeneID 40169) | DRSC10979 | inactive |
| Idgf6 (GeneID 36868) | DRSC07360 | inactive |
| CG11841 (GeneID 43430) | DRSC14399 | inactive |
| Sgs1 (GeneID 33701) | DRSC00787 | inactive |
| Sgs1 (GeneID 33701) | DRSC00848 | inactive |
| Tmtc3 (GeneID 37401) | DRSC04444 | inactive |
| ND-MNLL (GeneID 31697) | DRSC18159 | inactive |
| CG4734 (GeneID 36477) | DRSC06885 | inactive |
| CG4734 (GeneID 36477) | DRSC22072 | inactive |
| CG10366 (GeneID 35258) | DRSC02046 | inactive |
| CG42337 (GeneID 40335) | DRSC11686 | inactive |
| CG42337 (GeneID 40335) | DRSC11687 | inactive |
| FASN2 (GeneID 117361) | DRSC00167 | inactive |
| FASN2 (GeneID 117361) | DRSC00610 | inactive |
| Pvf3 (GeneID 33995) | DRSC02284 | inactive |
| Pvf3 (GeneID 33995) | DRSC02285 | inactive |
| Pvf3 (GeneID 33995) | DRSC02286 | inactive |
| Pvf3 (GeneID 33995) | DRSC02751 | inactive |
| CG3246 (GeneID 33564) | DRSC00584 | inactive |
| NELF-B (GeneID 31681) | DRSC17734 | inactive |
| caps (GeneID 39493) | DRSC11333 | inactive |
| caps (GeneID 39493) | DRSC22224 | inactive |
| CG34450 (GeneID 5740775) | DRSC17822 | inactive |
| Rab14 (GeneID 34840) | DRSC03403 | inactive |
| CG16779 (GeneID 41134) | DRSC15153 | inactive |
| CG17107 (GeneID 34467) | DRSC02575 | inactive |
| CG17107 (GeneID 34467) | DRSC22627 | inactive |
| ATbp (GeneID 5740592) | DRSC20906 | inactive |
| spg (GeneID 43404) | DRSC14373 | inactive |
| spg (GeneID 43404) | DRSC14881 | inactive |
| CG17404 (GeneID 41482) | DRSC15234 | inactive |
| mthl15 (GeneID 318914) | DRSC01120 | inactive |
| Dbp45A (GeneID 35917) | DRSC07395 | active |
| bchs (GeneID 33819) | DRSC03126 | inactive |
| IntS10 (GeneID 38444) | DRSC08173 | inactive |
| CG18563 (GeneID 35050) | DRSC02676 | inactive |
| CG3984 (GeneID 41821) | DRSC15530 | inactive |
| Vha16-3 (GeneID 317846) | DRSC10872 | inactive |
| CG2906 (GeneID 35753) | DRSC06841 | inactive |
| Bx42 (GeneID 31840) | DRSC17743 | inactive |
| CG4592 (GeneID 34317) | DRSC02761 | inactive |
| CG7695 (GeneID 42234) | DRSC16289 | inactive |
| CG4661 (GeneID 32238) | DRSC19910 | inactive |
| CG5846 (GeneID 34326) | DRSC02904 | inactive |
| CG13123 (GeneID 34303) | DRSC02219 | inactive |
| CG13364 (GeneID 50364) | DRSC17898 | inactive |
| CG13364 (GeneID 50364) | DRSC21263 | inactive |
| rumpel (GeneID 31674) | DRSC18436 | inactive |
| tomboy20 (GeneID 41285) | DRSC14913 | inactive |
| CG17122 (GeneID 40226) | DRSC10245 | inactive |
| CG10877 (GeneID 42432) | DRSC14274 | inactive |
| CG32281 (GeneID 317953) | DRSC08236 | inactive |
| CG16959 (GeneID 39648) | DRSC10230 | inactive |
| mRpL23 (GeneID 38302) | DRSC08307 | inactive |
| CG1360 (GeneID 35695) | DRSC06406 | inactive |
| CG10214 (GeneID 42811) | DRSC14213 | inactive |
| CG32448 (GeneID 318032) | DRSC22657 | inactive |
| rau (GeneID 33814) | DRSC03125 | inactive |
| CG15531 (GeneID 43592) | DRSC15068 | inactive |
| CG13875 (GeneID 38024) | DRSC08345 | inactive |
| CG1638 (GeneID 43721) | DRSC15132 | inactive |
| MED7 (GeneID 41288) | DRSC16059 | inactive |
| CG7290 (GeneID 40211) | DRSC10800 | inactive |
| CG3726 (GeneID 31525) | DRSC18320 | inactive |
| Fbxl7 (GeneID 41935) | DRSC15553 | inactive |
| prg (GeneID 34177) | DRSC03324 | inactive |
| r-cup (GeneID 33075) | DRSC20475 | inactive |
| CG15047 (GeneID 32845) | DRSC19623 | inactive |
| CG15047 (GeneID 32845) | DRSC21443 | inactive |
| CG33796 (GeneID 3771914) | DRSC09417 | inactive |
| Adh + Adhr | DRSC01862 | inactive |
| Adh + Adhr | DRSC01863 | inactive |
| CPT2 (GeneID 38355) | DRSC08553 | inactive |
| mip40 (GeneID 37215) | DRSC06541 | inactive |
| Grl58a (GeneID 37509) | DRSC04145 | inactive |
| CG12885 (GeneID 43308) | DRSC14572 | inactive |
| raptor (GeneID 31543) | DRSC18359 | inactive |
| Send2 (GeneID 34836) | DRSC01906 | inactive |
| CG10283 (GeneID 35102) | DRSC02034 | inactive |
| schuy (GeneID 40184) | DRSC10284 | inactive |
| SNRPG (GeneID 32636) | DRSC20207 | inactive |
| CG9801 (GeneID 41044) | DRSC16568 | inactive |
| CG4497 (GeneID 34001) | DRSC02754 | inactive |
| Irbp18 (GeneID 39243) | DRSC10612 | inactive |
| CG11756 (GeneID 32074) | DRSC19424 | inactive |
| Mlf (GeneID 36750) | DRSC07472 | inactive |
| RpL28 + snoRNA:Or-CD12 | DRSC08293 | inactive |
| CG9294 (GeneID 37491) | DRSC04537 | active |
| CG11131 (GeneID 40511) | DRSC11636 | inactive |
| CG11131 (GeneID 40511) | DRSC21736 | inactive |
| TTLL3A (GeneID 33947) | DRSC02143 | inactive |
| kirre (GeneID 31292) | DRSC18785 | inactive |

20 consecutive reagents already listed:
| Gene | amplicon | activity call |
| --- | --- | --- |
| CG17122 (GeneID 40226) | DRSC10245 | inactive |
| CG10877 (GeneID 42432) | DRSC14274 | inactive |
| CG32281 (GeneID 317953) | DRSC08236 | inactive |
| CG16959 (GeneID 39648) | DRSC10230 | inactive |
| mRpL23 (GeneID 38302) | DRSC08307 | inactive |
| CG1360 (GeneID 35695) | DRSC06406 | inactive |
| CG10214 (GeneID 42811) | DRSC14213 | inactive |
| CG32448 (GeneID 318032) | DRSC22657 | inactive |
| rau (GeneID 33814) | DRSC03125 | inactive |
| CG15531 (GeneID 43592) | DRSC15068 | inactive |
| CG13875 (GeneID 38024) | DRSC08345 | inactive |
| CG1638 (GeneID 43721) | DRSC15132 | inactive |
| MED7 (GeneID 41288) | DRSC16059 | inactive |
| CG7290 (GeneID 40211) | DRSC10800 | inactive |
| CG3726 (GeneID 31525) | DRSC18320 | inactive |
| Fbxl7 (GeneID 41935) | DRSC15553 | inactive |
| prg (GeneID 34177) | DRSC03324 | inactive |
| r-cup (GeneID 33075) | DRSC20475 | inactive |
| CG15047 (GeneID 32845) | DRSC19623 | inactive |
| CG15047 (GeneID 32845) | DRSC21443 | inactive |
